Assay results taken from US20260028391A1.

What was measured:
[1] = target: BAM37601.1_hMPV_Japan_2008 (human metapneumovirus); assay: FACS on Expi293F cells transiently transfected with the F protein; heat map, scale 20-100
[2] = target: QQV74443.1_hMPV_China_2011 (human metapneumovirus); assay: as above
[3] = target: AGJ74087.1_hMPV_Australia_2003 (human metapneumovirus); assay: as above
[4] = target: QDA18379.1_hMPV_Nepal_2012 (human metapneumovirus); assay: as above
[5] = target: BBB34997.1_hMPV_Japan_2013 (human metapneumovirus); assay: as above
[6] = target: QDA18363.1_hMPV_Nepal_2012 (human metapneumovirus); assay: as above
[7] = target: QRM13862.1_hMPV_China_2017 (human metapneumovirus); assay: as above
[8] = target: AGJ74228.1_hMPV_Australia_2003 (human metapneumovirus); assay: as above
[9] = target: AUF72427.1_hMPV_USA_2016 (human metapneumovirus); assay: as above
[10] = target: AGT75033.1_hMPV_Australia_2004 (human metapneumovirus); assay: as above
[11] = target: HMPV_Yokohama/JPN(P8527)2016 (human metapneumovirus); assay: as above
[12] = target: AHV79446.1_hMPV_Peru_2011 (human metapneumovirus); assay: as above
[13] = target: QDA18352.1_hMPV_Nepal_2013 (human metapneumovirus); assay: as above
[14] = target: QDA18360.1_hMPV_Nepal_2013 (human metapneumovirus); assay: as above
[15] = target: RSV-A F (RSV A); assay: post stress affinity
[16] = target: RSV-B F (RSV B); assay: post stress affinity
[17] = target: RSV F B S443P (RSV B); assay: post stress RSV B F protein binding
[18] = target: RSV B F protein, China 2014 strain (RSV B, China 2014 strain); assay: post stress RSV B F protein binding
[19] = target: RSV-B F (RSV B); assay: post stress RSV B F protein binding

B1: MPK146 (antibody, V domains shown)
VH: QVQLVESGGGLVKPGGSLRLSCAASGFTFSGYYMIWIRQAPGKGLEWIASISGSSNYIDYADSVRGRFTISRDNARNILDLQMNSLRAGDTALYYCATEQVPSPGPFDLWGQGTLVTVSS
VL: QSVLTQPPSVSGAPGQRVTISCTGSNSNLGAGYDVHWYQQFPGTSPKLLIYRNTNRPSGVPDRFAGSKSGTSASLAITGLQAEDEADYYCQSYDRSLSGWVFGGGTKLTVL
In the case of B1, the binding [1] is reported as “no binding (tested: not given)”, the binding [2] is reported as “binds” and the binding [3] is reported as “binds”. The binding [4] was “binds”, the binding [5] was “binds” and the binding [6] was “no binding (tested: not given)”. The binding [7] was “binds”, the binding [8] was “binds” and the binding [9] was “binds”. For the same binder, the binding [10] was “binds”, the binding [11] was “no binding (tested: not given)” and the binding [12] was “binds”. The binding [13] was “binds” and the binding [14] was “binds”.

B2: MPK176-v1.3 (antibody, V domains shown)
VH: QVQLVQSGAEVKKPGASVRVSCKASGYTLTAYGISWVRQAPGQGLEWMGWISPKHGNTHYAQRFQGRVTMTTDTSTSTAYMELRSLRPDDTAVYFCAREGVDIMAVPWYFDYWGQGTLVAVSS
VL: SYVLTQPPSVSVAPGQTARISCGGNNIGSKSVHWYQQKPGQAPVVVVYDDSKRPSGIPERFSGSNSGNTATLTISGVEAGDEADYFCQVWDSATDHWVFGGGTKLTVL
B2 was tested, and the binding [15] was “binds”, the binding [16] was “binds” and the binding [17] was “binds”. For the same binder, the binding [18] was “binds”.

B3: MPK176-v4.3 (antibody, V domains shown)
VH: B2 VH with N57S
VL: B2 VL
B3 was tested, and the binding [15] was “binds”, the binding [16] was “binds” and the binding [17] was “binds”. For the same binder, the binding [18] was “binds”.

B4: MPK201-v1.2 (antibody, V domains shown)
VH: EVQLVQSGAEVKKPGESLKISCQGSGYSFINYWIGWVRQKPGKGLEWMGIIYPFDSETKYSPSFQGHVTFSADKSINTAYVQWSSLRASDTAMYYCARFTFGLAVTTADVSGEGQAFEIWGQGTMVTVSS
VL: QIVMMQSPATLSVSPGERATLSCRASQSVAGNLAWYQQRPGQAPRLLVYGASTRASGVPARFSGSGSETEFTLTISSLQSEDFAVYYCHHYSDLPQAFGQGTRLDIK
For B4, the binding [15] was “binds” and the binding [16] was “binds”.

B5: MPK201-v4.1 (antibody, V domains shown)
VH: B4 VH with E1Q, N31S
VL: B4 VL with Q1E, L94W
With B5 the binding [15] was “binds” and the binding [16] was “binds”.

B6: MPK65-v2-v1.2 (antibody, V domains shown)
VH: QVPLVQSGAEVKKPGESLKISCKGSGYSFINYWIGWVRQMPGKGLEWMGVIYPFDSDTKYSPSFQGHVTISADKSSNTAYVQWSSLKASDTAMYYCARFTFGIAVVTDDVSGEGQAFEIWGQGTMVTVSS
VL: B4 VL with V48I, S56T, H90Q, D93N
B6 was tested, and the binding [15] was “binds”, the binding [16] was “binds” and the binding [19] was “binds”.

Changes are numbered by the printed parent chain. These are yes or no findings as the source states them, for the method shown. For some assays here: Binding can be weak; no strength is given.
